Sequences of proteins named here, by UniProt entry; tags and fusion partners are left off.
UniProt P21187: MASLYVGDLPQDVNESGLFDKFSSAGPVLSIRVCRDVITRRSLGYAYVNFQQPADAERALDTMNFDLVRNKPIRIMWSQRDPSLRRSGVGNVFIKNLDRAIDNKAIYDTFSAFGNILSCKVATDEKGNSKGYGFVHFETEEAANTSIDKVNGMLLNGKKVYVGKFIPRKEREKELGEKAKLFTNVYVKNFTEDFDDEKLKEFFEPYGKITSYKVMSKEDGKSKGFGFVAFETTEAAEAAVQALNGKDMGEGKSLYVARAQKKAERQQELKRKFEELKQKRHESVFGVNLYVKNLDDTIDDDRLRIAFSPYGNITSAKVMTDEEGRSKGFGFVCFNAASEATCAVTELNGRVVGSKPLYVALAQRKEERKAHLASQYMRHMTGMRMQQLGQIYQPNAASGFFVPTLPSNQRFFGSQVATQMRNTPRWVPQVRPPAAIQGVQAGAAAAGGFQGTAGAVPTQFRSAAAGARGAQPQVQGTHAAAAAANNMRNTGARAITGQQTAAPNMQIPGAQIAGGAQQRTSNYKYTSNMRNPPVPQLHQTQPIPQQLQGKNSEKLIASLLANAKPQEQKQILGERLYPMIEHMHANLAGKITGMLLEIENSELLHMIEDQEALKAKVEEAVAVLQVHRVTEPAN
UniProt O02374: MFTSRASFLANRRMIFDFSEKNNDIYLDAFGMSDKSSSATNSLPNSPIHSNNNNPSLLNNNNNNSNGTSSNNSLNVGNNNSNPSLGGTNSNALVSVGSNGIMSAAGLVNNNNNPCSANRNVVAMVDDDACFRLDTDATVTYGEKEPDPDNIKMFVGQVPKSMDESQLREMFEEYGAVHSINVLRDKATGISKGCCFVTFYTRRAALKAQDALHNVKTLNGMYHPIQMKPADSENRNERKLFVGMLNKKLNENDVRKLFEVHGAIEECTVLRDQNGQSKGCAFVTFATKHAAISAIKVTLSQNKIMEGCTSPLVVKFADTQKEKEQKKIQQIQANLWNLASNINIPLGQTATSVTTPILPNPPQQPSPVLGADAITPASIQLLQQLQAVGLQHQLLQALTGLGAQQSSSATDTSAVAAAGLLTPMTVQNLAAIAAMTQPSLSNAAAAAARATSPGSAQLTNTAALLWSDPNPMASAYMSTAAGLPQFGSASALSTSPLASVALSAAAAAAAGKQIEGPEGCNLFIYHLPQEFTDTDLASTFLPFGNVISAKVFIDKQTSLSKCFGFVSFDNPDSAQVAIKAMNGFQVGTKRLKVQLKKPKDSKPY

In PMC5779226:

B1: Cup (protein, UniProt Q9VMA3 1-1117)
chain: MQMAEAEQENGAGALKIATNAGATDRPAHQQLPLPVEDQQDEVLTPAEKGKFEYPPPPPPPTPVQAPLATKATALNASQEHDDDEANSEKWEDPCAPPPPPPLPTSAFLATGLGYLKLPAFKLKDALEKAITKLEANKRTLKASPESSRSIKNKNVVALEMLPRRSNPETIGDGSMLASTSTAVMLQTKKPAVIVEMERRCKIINLLAKQNQILESISGEAIPMHGPSKHLHEDEGLTLQVLSARASTPYTQPSSMLSCTAVSCDLEHDSPRKQVASKEAVPEQQSSQVQQKRPPSTGIHKPGSLRAPKAVRPTTAPVVSSKPVKSYTRSRLMDIRNGMFNALMHRSKESFVMPRIATCDDIELEGRLRRMNIWRTSDGTRFRTRSTTANLNMNNNNNNECMPAFFKNKNKPNLISDESIIQSQPPQPQTEFQDPAIVNQRRIGSGRLNHSKWGYNDEDYHSYHNGKSQHMEEVNSKNSKNMTVLQFFDNGEISSQPQRRPNTPVMGMSINRSENDTLHSNESSEDLSRANENYVKRVMSGFLVVSKPKSRDVEDRHHRRYRNQNEEPEWFSCGPTSRLDTIELCGFDEDEEKMLKEGNKNHGLGETERETSKQKMDHKYKWTHAEPMGRSKYMPKHDTNNNHNVENMNNVMATEHQQQKEEKRPGSGRSFQFDKFNQSQQNYESSSYVNHQQPPQTQPQQMQQQSNTNTNNSKFMSFFANEGNSSSSSLNEFFKQAINQGHGNNPEQPKSLGHIGQMPSVDQLEAKWRRNSLNNVGETANKQTDNFQKLIGSLSSAKPQSQAVGYDAISNFIMQQQQYQQQQQKQHLIIQQQQQHTAFLASLQLKAILGRADTQLLLLRLTKGEISKHGLLVQLANPRLTDMDREAITAVLQFTNTQQQQQQHKQQLDMLSSTVIASQLQNLHNLAIVQQTLAARQQPQHNPQTQAPHQLSQEDLQAHANVIMRNAVMKRKIEEQTSKLINGGAKHQAQQQYLNRGQQRQARPDANSNALLHALISGGGNNHASGYPMNGQPQKHHSNLRFGDNQNFQSFESNQPHFATQYKQQYQQSQQQHPHQQPQQLNSLHQNNAGAVNSFNKAQMQAQSAISMLPNSGDEFH
B2: ME31B (protein, UniProt P23128 1-459)
chain: MMTEKLNSGHTNLTSKGIINDLQIAGNTSDDMGWKSKLKLPPKDNRFKTTDVTDTRGNEFEEFCLKRELLMGIFEKGWERPSPIQEAAIPIALSGKDVLARAKNGTGKTGAYCIPVLEQIDPTKDYIQALVMVPTRELALQTSQICIELAKHLDIRVMVTTGGTILKDDILRIYQKVQLIIATPGRILDLMDKKVADMSHCRILVLDEADKLLSLDFQGMLDHVILKLPKDPQILLFSATFPLTVKNFMEKHLREPYEINLMEELTLKGVTQYYAFVQERQKVHCLNTLFSKLQINQSIIFCNSTQRVELLAKKITELGYCCYYIHAKMAQAHRNRVFHDFRQGLCRNLVCSDLFTRGIDVQAVNVVINFDFPRMAETYLHRIGRSGRFGHLGIAINLITYEDRFDLHRIEKELGTEIKPIPKVIDPALYVANVGASVGDTCNNSDLNNSANEEGNVSK

Key:
[1] = target: PABP (D. melanogaster (endogenous in S2 cells and embryos)) (UniProt P21187); experiment: affinity purification with mass spectrometry; 0-1 hr embryo extracts immunoprecipitated with FLAG-tagged anti-PABP or anti-eIF4G Fabs (control Fab C1) on anti-FLAG beads, 4°C; LC/MS/MS of the immunoprecipitates
[2] = target: eIF4G (D. melanogaster (endogenous in S2 cells and embryos)); experiment: affinity purification with mass spectrometry; S2 cell extracts immunoprecipitated with FLAG-tagged anti-PABP or anti-eIF4G Fabs (control Fab C1) on anti-FLAG beads, 4°C; LC/MS/MS of the immunoprecipitates

Molecule	binding [1]	binding [2]
BRU1 (from UniProt O02374 1-604)	no binding	–
B1	binds	–
B2	–	no binding

Results are given in words; binding and its absence hold for the method and conditions named. Binding seen in cells or lysates may run through a third protein. These calls come from enrichment with a bait or labelling near it, and not all partners need be listed. A no says only that the protein was not detected with the bait.
